The data set can be described thus: general procedure: solution-phase peptide synthesis; DEPC with triethylamine or diisopropylethylamine (general procedure C); DCC/DMAP.

In turn, “N-methyl-L-valyl-N-[(1S,2R)-4-[(2g)-2-[(1R,2R)-3-[[(1R,2S)-2-hydroxy-1-methyl-2-phenylethyl]amino]-1-methoxy-2-methyl-3-oxopropyl]-1-pyrrolidinyl]-2-methoxy-1-[(1S)-1-methylpropyl]-4-oxobutyl]-N-methyl-L-valinamide” came in with a step yield (late stage modification step) of 38%.

Regarding “N-methyl-L-valyl-N-[(1S,2R)-4-[(2S)-2-[(1R,2R)-3-[[(1R,2S)-2-hydroxy-1-methyl-2-phenylethyl]amino]-1-methoxy-2-methyl-3-oxopropyl]-1-pyrrolidinyl]-2-methoxy-1-[(1S)-1-methylpropyl]-4-oxobutyl]-N-methyl-L-valinamide”, the step yield (late stage modification step) was 95%.

Under “late stage modification step”, “N,N-dimethyl-L-valyl-N-[(1S,2R)-4-[(2S)-2-[(1R,2R)-3-[[(1R)-2-oxo-1-methyl-2-phenylethyl]amino]-1-methoxy-2-methyl-3-oxopropyl]-1-pyrrolidinyl]-2-methoxy-1-[(1S)-1-methylpropyl]-4-oxobutyl]-N-methyl-L-valinamide” showed a step yield of 64%.

As for “N,N-dimethyl-L-valyl-N-[(1S,2R)-4-[(2S)-2-[(1R,2R)-3-[[(1R,2S)-2-hydroxy-1-methyl-2-phenylethyl]amino]-1-methoxy-2-methyl-3-oxopropyl]-1-pyrrolidinyl]-2-methoxy-1-[(1S)-1-methylpropyl]-4-oxobutyl]-N-methyl-L-isoleucinamide”, the step yield (coupling step) was determined as 60%.

For the origin of these results see patent US7256257B2 (priority 2001, dated 2007).
